From article PMC11377309
Results are given in words; binding and its absence hold for the method and conditions named.

Experiments:
[1] = target: HLA-G3 (human) (UniProt P17693); test: Cell-Int (cell-cell conjugates counted by flow cytometry); WOP cells stably expressing HLA-G isoforms and transfected with GFP, detached with EDTA, against 293-F cells with receptor and RFP, ratio 1:2, 1-2 h at 25°C; background: β2m-transduced WOP cells
[2] = target: HLA-G4 (human) (UniProt P17693); test: as above
[3] = target: HLA-G2 (human) (UniProt P17693); test: as above
[4] = target: T1, HLA-G1/β2m (human) (UniProt P17693+P61769); test: as above
[5] = target: HLA-G1 expressed without co-expressed β2m (human) (UniProt P17693); test: as above
[6] = target: T1, HLA-G1/β2m (human); test: Cell-Int (cell-cell conjugates counted by flow cytometry); two batches of 293-F cells, each transfected with one membrane protein and GFP or RFP, mixed in FreeStyle 293 Expression Medium, 1-2 h at 25°C (Juno/Izumo1 also at 4°C and 37°C and from 10 min to 3 h); percent GFP+ RFP+ double-positive events
[7] = target: HLA-G3 (human) (UniProt P17693); test: Cell-Int (cell-cell conjugates counted by flow cytometry); K562 cells stably expressing GFP and HLA-G isoforms against 293-F cells with receptor and RFP, ratio 1:2, 1-2 h at 25°C
[8] = target: HLA-G4 (human) (UniProt P17693); test: as above
[9] = target: HLA-G2 (human) (UniProt P17693); test: as above
[10] = target: T1, HLA-G1/β2m (human); test: as above
[11] = target: HLA-G1 expressed without co-expressed β2m (human) (UniProt P17693); test: as above

- binding [1]: no binding
- binding [2]: no binding
- binding [3]: no binding
- binding [4]: no binding
- binding [5]: no binding
- binding [6]: no binding
- binding [7]: no binding
- binding [8]: no binding
- binding [9]: no binding
- binding [10]: no binding
- binding [11]: no binding
B1: CD160 (receptor, UniProt O95971 25-159)
chain: GCINITSSASQEGTRLNLICTVWHKKEEAEGFVVFLCKDRSGDCSPETSLKQLRLKRDPGIDGVGEISSQLMFTISQVTPLHSGTYQCCARSQKSGIRLQGHFFSILFTETGNYTVTGLKQRQHLEFSHNEGTLS
